Measurements reported in PubChem BioAssay AID686938 (Drosophila RNAi Screening Center, 2013).

- Test: 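Looking for CRAC channel components and the factors controlling them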 (primary screen)
- System: Drosophila S2R+ cells
- Reagents: long dsRNA against Drosophila genes, about 0.25 µg dsRNA per well, roughly 10,000 cells
- Time to read-out: 5 days of knock-down before the calcium assay
- Challenge: thapsigargin (SERCA pump blocker) to empty calcium stores; entry signal taken 4 min after adding it
- Measured: 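Duplicate raw fluo-4 intensities per well from a plate reader, at rest and four minutes after thapsigargin emptied calcium stores; entry-to-rest ratio filled for only some wells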
- Reading the numbers: calcium entry signal: higher = stronger calcium signal after store depletion; entry to resting ratio: higher = more calcium entry relative to resting level; resting calcium signal: higher = higher resting calcium signal
- Rule for the call: 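Hit if the duplicate-averaged plate z-score for entry over resting signal is under −3; wells with weak total dye signal (Fmax z < −2) or more than 5 off-targets removed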
- Calls: active = strongly reduced calcium entry; inactive = no strong reduction
The deposit covers about 23,000 reagents; below is a random part of those that have a named target and a result. Over the whole deposit, 75 (0.33%) are marked active. 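Raw plate signals without normalisation; calls rest on plate z-scores that were not deposited; ratio present for only 364 wells.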 Reagents against one gene are numbered here. A plus sign joins genes that one reagent is predicted to hit. The record does not give: the dose of the treatment.

no.	gene	reagent no.	calcium entry signal, replicate 1 (fluorescence units)	calcium entry signal, replicate 2 (fluorescence units)	entry to resting ratio	resting calcium signal, replicate 1 (fluorescence units)	resting calcium signal, replicate 2 (fluorescence units)	outcome
1	CG14196	1	5.86e7	4.90e7		2.81e7	2.31e7	inactive
2	Qsox2 (Quiescin sulfhydryl oxidase 2)	1	2.07e7	2.13e7		1.05e7	1.06e7	inactive
3	CG6006	1	2.44e7	4.23e7		1.17e7	1.99e7	inactive
4	CG6006	2	2.98e7	2.18e7		1.34e7	1.06e7	inactive
5	asRNA:CR43259 + CG31089	1	4.19e7	5.50e7		2.17e7	2.25e7	inactive
6	Rpn13R (Regulatory particle non-ATPase 13-related)	1	3.27e7	3.22e7		1.62e7	1.52e7	inactive
7	Nup160 + RfC38	1	3.50e7			1.86e7		inactive
8	CG43666 + CG43667 + CG43668	1	3.21e7	6.60e7		1.38e7	2.47e7	inactive
9	CG43666 + CG43667 + CG43668	2	5.63e7	4.10e7		2.58e7	1.86e7	inactive
10	CG6576	1	3.37e7	4.49e7		1.62e7	2.06e7	inactive
11	His2B:CG33894 + His2B:CG33872 + His2B:CG33902 + 20 more	1	1.52e7	2.04e7		1.21e7	1.25e7	inactive
12	Cpr49Ag (Cuticular protein 49Ag)	1	3.06e7	3.95e7		1.58e7	1.84e7	inactive
13	CG14658	1	2.69e7	5.02e7		1.36e7	1.84e7	inactive
14	CG12880	1	3.00e7	4.51e7		1.50e7	1.97e7	inactive
15	CG31635	1	1.98e7	2.32e7		1.05e7	1.05e7	inactive
16	CG31635	2	3.01e7	2.87e7		1.50e7	1.47e7	inactive
17	CG6380	1	4.31e7	2.79e7		1.93e7	1.37e7	inactive
18	Duox (Dual oxidase)	1	3.69e7	5.16e7		1.83e7	2.20e7	inactive
19	CG17186	1	4.43e7	4.06e7		4.61e7	1.70e7	inactive
20	Osi1 (Osiris 1)	1	3.60e7	5.90e7		1.73e7	2.65e7	inactive
21	CG17380	1	3.46e7	4.78e7		1.87e7	1.92e7	inactive
22	okr (okra)	1	3.68e7			2.23e7		inactive

An excerpt of the results above, for reference:
no.	gene	reagent no.	calcium entry signal, replicate 1 (fluorescence units)	calcium entry signal, replicate 2 (fluorescence units)	entry to resting ratio	resting calcium signal, replicate 1 (fluorescence units)	resting calcium signal, replicate 2 (fluorescence units)	outcome
3	CG6006	1	2.44e7	4.23e7		1.17e7	1.99e7	inactive
4	CG6006	2	2.98e7	2.18e7		1.34e7	1.06e7	inactive
5	asRNA:CR43259 + CG31089	1	4.19e7	5.50e7		2.17e7	2.25e7	inactive
6	Rpn13R (Regulatory particle non-ATPase 13-related)	1	3.27e7	3.22e7		1.62e7	1.52e7	inactive
7	Nup160 + RfC38	1	3.50e7			1.86e7		inactive

Additional records follow:
no.	gene	reagent no.	calcium entry signal, replicate 1 (fluorescence units)	calcium entry signal, replicate 2 (fluorescence units)	entry to resting ratio	resting calcium signal, replicate 1 (fluorescence units)	resting calcium signal, replicate 2 (fluorescence units)	outcome
23	Gr2a (Gustatory receptor 2a)	1	5.96e7	5.61e7	2.3	2.54e7	2.28e7	inactive
24	CG14234	1	2.74e7	4.01e7		1.38e7	1.73e7	inactive
25	CG14234	2	4.00e7	3.51e7		1.86e7	1.44e7	inactive
26	Nup188 (Nucleoporin 188kDa)	1	3.23e7	3.25e7		2.00e7	1.65e7	inactive
27	Arl2 (ADP ribosylation factor-like 2)	1	2.55e7	2.00e7		1.20e7	1.00e7	inactive
28	CG15483	1	5.37e7	3.43e7		2.43e7	1.67e7	inactive
29	CG12253	1	4.46e7			1.98e7		inactive
30	CG8818	1	4.05e7	4.24e7		1.74e7	2.01e7	inactive
31	CG13023	1	4.41e7	3.79e7		2.17e7	1.92e7	inactive
32	CG13023	2	3.33e7	6.24e7		1.72e7	2.35e7	inactive
33	PpY-55A (Protein phosphatase Y at 55A)	1	3.16e7	3.35e7		1.36e7	1.61e7	inactive
34	PpY-55A (Protein phosphatase Y at 55A)	2	4.07e7	3.15e7		2.27e7	1.46e7	inactive
35	Naa80 (N(alpha)-acetyltransferase 80)	1	3.24e7	4.04e7		1.63e7	1.99e7	inactive
36	Pp2B-14D (Protein phosphatase 2B at 14D)	1	2.25e7	2.82e7		1.30e7	1.36e7	inactive
37	Pp2B-14D (Protein phosphatase 2B at 14D)	2	4.15e7	3.23e7		2.07e7	1.58e7	inactive
38	Nep7 (Neprilysin 7)	1	2.73e7	4.31e7		1.44e7	1.89e7	inactive
39	CG17032	1	5.42e7	6.45e7		2.58e7	2.48e7	inactive
40	Cec2 (Cecropin 2)	1	2.82e7	3.62e7		1.24e7	1.82e7	inactive
